# In patent US10835536B2, “Therapeutic agent for FGFR inhibitor-resistant cancer” (TAIHO PHARMACEUTICAL CO., LTD., priority 2013, dated 2020):
# System: AZD4547 resistant cells
# Assay: Cell growth inhibition, AZD4547 resistant OCUM-2MD3 cells
# Type: cell-based, human
# Conditions: AZD4547 resistant clones, in words
smiles,measurement,value
"C=CC(=O)N1CC[C@H](n2nc(C#Cc3cc(OC)cc(OC)c3)c3c(N)ncnc32)C1 [Ex. Compound 2, (S)-1-(3-(4-amino-3-((3,5-dimethoxyphenyl)ethynyl)-1H-pyrazolo[3,4-d]pyrimidin-1-yl)pyrrolidin-1-yl)prop-2-en-1-one]",growth inhibition compared with wild type,inhibited to the same extent as in the wild type
